Results as given in ChEMBL document CHEMBL1743201, “Casarett and Doull's Toxicology The Basic Science of Poisons, 7th edition” (2008).

Amino acid sequences for entries named in this document (tags omitted). A change or cut given only in a name is not applied to a line headed by its entry.
UniProt O75897: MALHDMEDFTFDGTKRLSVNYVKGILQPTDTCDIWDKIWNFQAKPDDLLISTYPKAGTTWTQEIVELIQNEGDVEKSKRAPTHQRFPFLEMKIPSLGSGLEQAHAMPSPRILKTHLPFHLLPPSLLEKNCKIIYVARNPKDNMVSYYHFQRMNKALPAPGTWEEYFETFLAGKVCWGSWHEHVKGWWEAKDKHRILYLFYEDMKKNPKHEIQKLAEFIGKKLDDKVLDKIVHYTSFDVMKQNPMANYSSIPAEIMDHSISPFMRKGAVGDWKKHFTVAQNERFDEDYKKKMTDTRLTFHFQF

Target: Sulfotransferase 1C4 (Homo sapiens, UniProt O75897)
Test: Major substrate of human cytosolic sulfotransferase SULT1C4
Format: ADME

In the case of `CCCCCCCCc1ccc(O)cc1` [4-OCTYLPHENOL], the Activity is reported as “Substrate”.
